Some of the results follow. Shown are side measurements of this screen, not its main read-out; they come without a call. Most of these compounds were active or inconclusive in the main read-out, so they are no random draw. Words in brackets tell the shape of the fitted curve; partial curves, single points and poor fits give uncertain potencies.
Assay: qHTS Assay for Lipid Storage Modulators in Drosophila S3 Cells;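 as to cell number change: cells counted by Cell Tracker Red CMTPX staining in the red channel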
Conditions: BODIPY lipid droplet fluorescence, 18-24 h; for cell number change: measured here: cell count max response, cells fed with added oleic acid
Procedure, shortened: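 Laser-scanning cytometry quantifies lipid droplet accumulation (500–530 nm total intensity; droplet/cell object ratio) in oleic acid-fed (400 uM added) Drosophila S3 cells treated with a concentration series. 20 uM Triacsin C defined 100% inhibition.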

[1] = measured here: cell number channel AC50, cells fed with added oleic acid
[2] = measured here: lipid fluorescence (Fed channel) AC50, cells fed with added oleic acid

SMILES	cell number change [%]	AC50 [1]	AC50 [2]
CCc1ccc(Nc2cc(=O)n(C3CCCCC3)c(=O)[nH]2)cc1	168	23.1 µM [rising, single point]	4.61 µM [rising, partial curve]
Cc1ccsc1C(=O)N1CCCC(CCC(=O)NCc2ccccc2F)C1 (stereo not given)	-29.9	–	18.4 µM [falling, partial curve, poor fit]
Cc1c(NC(=O)c2cc3ccccc3oc2=O)c(=O)n(-c2ccccc2)n1C	–	–	6.51 µM [falling, single point]
Cc1ccc(-c2csc(=Nc3cccnc3)n2CCCn2ccnc2)cc1C	33.3	32.6 µM [rising, single point]	1.46 µM [rising, partial curve]
O=C(c1cc[n+]([O-])cc1)N1CCCC(N2CCN(c3cccc(C(F)(F)F)c3)CC2)C1 (stereo not given)	-32.5	–	–
Cn1c(NCCO)nc2c1c(=O)n(Cc1ccc(F)cc1)c(=O)n2C	12.2	–	5.8 µM [rising, partial curve]
COc1ccc(C(=O)OCC(=O)c2c[nH]c3ccccc23)cc1OC	23.7	–	20.6 µM [rising, partial curve, poor fit]
COc1ccc(-n2nc3cc(C)c(NC(=S)NC(=O)c4ccccc4C)cc3n2)cc1	42.3	29.1 µM [rising, single point]	–
Cc1ccc(O)c(C2=NNC(O)(C(F)(F)F)C2)c1 (stereo not given)	-57.5	20.6 µM [falling, single point]	–
CCc1nnc(NC(=O)CCC(=O)N2CCN(Cc3ccc(F)cc3)CC2)s1	-5.2	–	0.231 µM [rising, full curve, poor fit]
CCOC(=O)CSc1nc2cc(C(=O)NCC3CCCO3)ccc2c(=O)n1Cc1ccco1 (stereo not given)	-29	–	2.59 µM [rising, partial curve]
COC(=O)c1cc(-c2ccc(S(=O)(=O)N3CCCC3)cc2)c(C(F)(F)F)s1	19.6	–	23.1 µM [rising, single point]
C=CCn1c(NC(=O)CC)c(C(=O)OCC)sc1=S	42.4	11.6 µM [rising, partial curve]	10.3 µM [rising, partial curve]
Oc1c(CN2CCc3ccccc3C2)cc(Cl)c2cccnc12	-48.3	16.4 µM [falling, partial curve]	18.4 µM [falling, partial curve]
Cc1ccc(P(=O)(CSC(=N)N)c2ccc(C)cc2)cc1	-12.1	0.13 µM [falling, full curve, poor fit]	6.51 µM [falling, single point]
COc1ccc(C)cc1N/C(N)=N/c1nc(C)cc(C)n1	13.8	–	29.1 µM [falling, single point]
COc1ccc2c(c1OC)C(=O)OC2Nc1ncccc1C (stereo not given)	-10.3	–	0.291 µM [falling, full curve, poor fit]
CC(C)N(Cc1nc(-c2ccc(Cl)cc2)no1)C(=O)/C=C/c1ccccc1	16.2	–	18.4 µM [rising, single point]
CC1Cc2ccccc2N1C(=O)COc1nc2ccccc2nc1N1CCOCC1 (stereo not given)	8.13	–	6.51 µM [rising, single point]

SMILES	cell number change [%]	AC50 [1]	AC50 [2]
CN1/C(=C\C(=O)C[n+]2cccc(C(N)=O)c2)C(C)(C)c2ccccc21	–	0.146 µM [rising, full curve, poor fit]	0.116 µM [rising, full curve, poor fit]
Cn1c(SCC(=O)NCCc2ccccc2)ncc(C(=O)Nc2ccccc2)c1=O	9.11	–	–
CCCn1c(=O)n(C)c(=O)c2c(SC(C)C(=O)NCC3CCCO3)nc(CC(C)C)nc21 (stereo not given)	124	14.6 µM [rising, partial curve]	–
CN(C)c1ccc(NC(=O)COC(=O)CCC(=O)c2ccc(F)cc2)cc1	-7.55	7.31 µM [falling, single point]	23.1 µM [falling, partial curve]
O=C(N/N=C\c1ccc([N+](=O)[O-])s1)c1cncc(Br)c1	16.9	–	14.6 µM [rising, single point]
COc1ccc(C(=O)C(C)Sc2nnc(C3CC3)n2C2CC2)cc1 (stereo not given)	-20	0.731 µM [falling, single point]	–
O=C(O)c1cc2c(cc1NC(=O)c1ccccc1C(F)(F)F)OCCCO2	20.5	–	–
O=C(CC1NCCN(Cc2ccccc2)C1=O)Nc1ccc(Cl)cc1 (stereo not given)	3.57	6.51 µM [falling, single point]	6.51 µM [falling, single point]
CCN(C(=O)CSc1nnc2nc(C)cc(C)n12)c1ccccc1	13.9	–	4.11 µM [rising, full curve, poor fit]
O=C(O)c1ccc(NS(=O)(=O)c2ccc(C(=O)Nc3ccccc3)cc2)cc1	1.08	6.51 µM [rising, single point]	–
COc1ccc(OC)c(NC(=O)CN(Cc2ccccc2)S(C)(=O)=O)c1	-20.8	–	22.4 µM [falling, partial curve, poor fit]
CNCC[C@H](Oc1ccc(C(F)(F)F)cc1)c1ccccc1	–	–	0.58 µM [rising, single point]
O=C(COc1ccc([N+](=O)[O-])cc1)Nc1ccc2c(c1)CCC2	16.6	–	2.91 µM [rising, partial curve]
COc1ccc(C(=O)NCCc2nnc(SCc3nc4ccccc4c(=O)[nH]3)n2C)cc1	4.87	–	6.51 µM [rising, single point]
CN1C(=S)NC(C)(C)CC1(C)c1ccc(O)cc1O (stereo not given)	-7.15	–	2.59 µM [falling, partial curve]
COc1cc(OC)cc(C(=O)c2c(C)c(C#N)c3ccccn23)c1	-33.3	–	–
CCOc1ccc(C(C)=O)cc1CSc1nnnn1-c1ccc(O)cc1	-7.39	–	–
CC(=O)C1=C(O)C(=O)N(Cc2cccnc2)C1c1ccc(Cl)cc1Cl (stereo not given)	6.18	–	29.1 µM [rising, single point]
COc1ccc(-c2nnc(NC(=O)Cc3ccccc3)s2)c(OC)c1	14	0.0731 µM [falling, full curve, poor fit]	0.082 µM [falling, full curve, poor fit]

Shown with bars between the fields: entries from further up.
SMILES | cell number change [%] | AC50 [1] | AC50 [2]
O=C(COc1ccc([N+](=O)[O-])cc1)Nc1ccc2c(c1)CCC2 | 16.6 | – | 2.91 µM [rising, partial curve]
COc1ccc(C(=O)NCCc2nnc(SCc3nc4ccccc4c(=O)[nH]3)n2C)cc1 | 4.87 | – | 6.51 µM [rising, single point]
CN1C(=S)NC(C)(C)CC1(C)c1ccc(O)cc1O (stereo not given) | -7.15 | – | 2.59 µM [falling, partial curve]

Later entries:

SMILES	cell number change [%]	AC50 [1]	AC50 [2]
CN(c1ccc(C(=O)Nc2ccccn2)cc1)S(=O)(=O)c1ccccc1	-25.2	5.8 µM [falling, single point]	0.291 µM [falling, full curve, poor fit]
CCCn1nc(NS(=O)(=O)c2cccc3nonc23)c2cc3cccc(C)c3nc21	-5.31	–	29.1 µM [falling, single point]
Cc1noc(C)c1S(=O)(=O)N(CC(=O)NC1CCC(C)CC1)c1ccc(C(C)C)cc1 (stereo not given)	-11.1	–	29.1 µM [falling, single point]
Cc1c(NC(=O)c2cc(-c3ccc(Cl)cc3)on2)c(=O)n(-c2ccccc2)n1C	7.66	–	7.31 µM [rising, partial curve]
CCOC(=O)C1=C(O)C(=O)N(Cc2ccccc2)CC1	-12.7	–	0.206 µM [falling, full curve]
Cc1nn(-c2ccccn2)c2c1C(c1ccccc1Cl)C1=C(N2)c2ccccc2C1=O (stereo not given)	–	0.731 µM [rising, full curve]	1.3 µM [rising, partial curve]
COc1ccc(-c2c3c(=O)n(C)c(=O)n(C)c3cn2Cc2cccnc2)cc1	6.32	–	–
CC(Sc1nc(NCc2ccccc2)nc(N2CCOCC2)n1)C(=O)Nc1ccccc1 (stereo not given)	-46.6	11.6 µM [falling, partial curve]	29.1 µM [falling, single point]
O=C1c2cccnc2C(Nc2cccc(F)c2)N1Cc1ccco1 (stereo not given)	-24.1	–	0.206 µM [falling, full curve]
O=c1c2c(ncn2C2CCCC2)n(Cc2ccccc2)c(=O)n1CCOc1ccc(Br)cc1	-9.23	–	2.91 µM [rising, partial curve, poor fit]
CS(=O)(=O)c1ccc2nc(NC(=O)Cc3ccccc3)sc2c1	-16.9	–	23.1 µM [falling, single point]
NS(=O)(=O)c1ccc(CCNC(=O)c2ccccc2F)cc1	1.75	–	–
CC(=O)N(Cc1cc2c(C)cc(C)cc2[nH]c1=O)C1CCCCC1	-17.8	–	0.116 µM [falling, single point]
CCC(C)N(C(=O)COC(=O)c1[nH]c(C)c(C(C)=O)c1C)C1CCS(=O)(=O)C1 (stereo not given)	0.532	–	6.51 µM [rising, single point]
COc1ccc(-c2cc(C)no2)cc1S(=O)(=O)N1CCN(c2ccccc2F)CC1	–	0.291 µM [rising, partial curve, poor fit]	0.58 µM [rising, single point]
CCOC(=O)N1CCN(c2ccc(C(C)=O)cc2F)CC1C (stereo not given)	-3.05	1.84 µM [rising, partial curve, poor fit]	6.51 µM [rising, single point]
Cc1c(C(=O)Nc2ccc3c4c(cccc24)CC3)cccc1[N+](=O)[O-]	20.4	–	–
Cc1cccc(-n2ncc3c(NCCCO)ncnc32)c1	0.132	–	0.411 µM [rising, full curve, poor fit]
CCCCOc1ccc(C(=O)NCC(=O)NCCCn2nc(C)cc2C)cc1	0.389	–	0.0206 µM [falling, full curve, poor fit]
